# Measurements reported in PubChem BioAssay AID1159578 (Peter MacCallum Cancer Centre, 2015)
# Assay: 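siRNA pools altering how lymphatic endothelial cells close a scratch wound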 (primary screen)
# System: human lymphatic endothelial cells
# Reagents: siRNA pool against human genes, 40 nM
# Duration: 48 h after transfection
# Read-out: 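Cells stained with dye and imaged after a scratch; covered wound area and nuclei counted, duplicates averaged, migration set against mock wells and turned into a robust z-score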
# Direction: migration robust z-score: higher = faster migration into the scratch; nuclei per well: higher = more cells in the well
# Call rule: 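Migration changed when robust z exceeds 2 or falls below -2 and mean nuclei number is at least 3300; otherwise not called changed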
# Meaning of the calls: active = migration changed; inactive = no migration change, or too few cells
# The deposit covers about 18,000 reagents; this is a random part of them. In the full data, about 1,030 (5.7%) were called active. 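Inactive calls also include pools with fewer than 3300 nuclei, whose migration was not assessed.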 Raw values are not corrected between plates. A number with no mark means an inactive call. Further read-outs or replicates are left out here.
gene,migration robust z-score,migration class with cell-count check,"nuclei per well, duplicate mean"
RPS3,0.26,migration z between -2 and 2; enough cells,4626
MAGEB1,-0.24,migration z between -2 and 2; enough cells,6331
TMEM154,-0.19,migration z between -2 and 2; enough cells,5558
RHOXF1,-0.32,migration z between -2 and 2; enough cells,5392
SCUBE1,1.29,migration z between -2 and 2; enough cells,5136
RGS9,-0.9,migration z between -2 and 2; enough cells,4290
TMEM61,-0.12,migration z between -2 and 2; enough cells,3829
RARB,-1.87,migration z between -2 and 2; enough cells,4596
TMC2,-0.49,migration z between -2 and 2; enough cells,5779
CYP4A22,1.09,migration z between -2 and 2; enough cells,5420
NCS1,-2.91 (active),migration z below -2; enough cells,4434
DAP3,-0.96,migration z between -2 and 2; enough cells,4911
LY6S-AS1,-0.26,migration z between -2 and 2; enough cells,4612
ASNSD1,-0.78,migration z between -2 and 2; enough cells,5754
MED18,0.17,migration z between -2 and 2; enough cells,6306
SIGLEC12,0.65,migration z between -2 and 2; enough cells,5725
AGBL2,-0.44,migration z between -2 and 2; enough cells,6103
STAM2,1.15,migration z between -2 and 2; enough cells,6344
ARHGAP19,1.47,migration z between -2 and 2; enough cells,5160
ZNF346,1.14,migration z between -2 and 2; enough cells,6058
HSPA5,-2.29 (active),migration z below -2; enough cells,5943
DNAJC18,-1.35,migration z between -2 and 2; enough cells,4362
CAPN9,0.26,migration z between -2 and 2; enough cells,5008
ZKSCAN3,-0.22,migration z between -2 and 2; enough cells,6166
NREP,-2.78,under 3300 nuclei; migration not judged,1991
NUDT2,-2.37 (active),migration z below -2; enough cells,3784
STYK1,-3.87 (active),migration z below -2; enough cells,4300
EFCAB5,-0.72,migration z between -2 and 2; enough cells,6895
SLC22A15,-0.47,migration z between -2 and 2; enough cells,5072
NUP107,-0.52,migration z between -2 and 2; enough cells,5540
CUL3,-2.18 (active),migration z below -2; enough cells,6086
AGBL4,0.1,migration z between -2 and 2; enough cells,6190
POMZP3,0.69,migration z between -2 and 2; enough cells,6840
LEKR1,-0.64,migration z between -2 and 2; enough cells,6486
CTTNBP2,-1.15,migration z between -2 and 2; enough cells,4306
LOC100288884,-0.09,migration z between -2 and 2; enough cells,4864
NAV1,0.83,migration z between -2 and 2; enough cells,5562
SEMA4A,0.02,migration z between -2 and 2; enough cells,5280
CD101,-0.56,migration z between -2 and 2; enough cells,4936
ESPN,-1.46,migration z between -2 and 2; enough cells,4587
DDX28,1.06,migration z between -2 and 2; enough cells,4898
CNIH1,-0.84,migration z between -2 and 2; enough cells,5532
CORO7,-0.49,migration z between -2 and 2; enough cells,5598
CRACR2B,-1.98,migration z between -2 and 2; enough cells,5069
CLHC1,0.93,migration z between -2 and 2; enough cells,5680
RAB37,0.77,migration z between -2 and 2; enough cells,5720
ABHD14B,-1.77,migration z between -2 and 2; enough cells,7026
IL18R1,0.65,migration z between -2 and 2; enough cells,6814
CBY1,1.3,migration z between -2 and 2; enough cells,6618
DYNLRB2,-0.04,migration z between -2 and 2; enough cells,5971
MDN1,-1.38,migration z between -2 and 2; enough cells,5536
MAPK14,0.52,migration z between -2 and 2; enough cells,5248
IFNA8,0.97,migration z between -2 and 2; enough cells,5453
LIMCH1,1.02,migration z between -2 and 2; enough cells,6212
EPN3,-0.28,migration z between -2 and 2; enough cells,5315
XKR4,-1.67,migration z between -2 and 2; enough cells,5740
OR4F15,-0.07,migration z between -2 and 2; enough cells,7115
